Reference: US20250085273A1, “NOVEL RAPID DRUG DISCOVERY FOR SEPSIS AND AGENTS FOR USE AS SEPSIS THERAPY” (priority 2023, published 2025)
For some of these results: For at least one compound, name, drawing or mass did not settle the structure. Some results were stated once for a whole list of compounds, not compound by compound.

Legend:
Format in all cases: in vivo, Danio rerio
[1] = system: 5-dpf zebrafish challenged with P. aeruginosa LPS 60 μg/mL; experiment: Concentration range find test (therapeutic window), 5-dpf zebrafish, P. aeruginosa LPS; conditions: drug concentrations as low as 0.01 μM
[2] = system: zebrafish exposed to P. aeruginosa LPS; experiment: Model compound testing in the optimized zebrafish sepsis model (varying LPS dose ranges)
Protocol: Three sources of LPS were evaluated: E. coli 0111:B4, P. aeruginosa Sigma L9143, and K. pneumoniae. E. coli 0111:B4 LPS was selected as the reference LPS used by Philip et al. (2017). P. aeruginosa LPS is commonly associated with infections in hospitals, accounting for an estimated 32,600 cases and resulting in an estimated 2,700 deaths in 2017 (CDC Report 2019). P. aeruginosa infections are also a common cause of sepsis in both patients with severe burns and immunocompromised patients. K. pneumoniae LPS has military relevance related to battlefield injury infections (Kiley et al., 2021). […] After 6 and 24 hours, the plates were removed and scored for mortality, tail edema, and ROS production. […] ROS production was determined as described by Philip et al. (2017) by adding 2,7-dichloroflurescein diacetate (100 μM) to the wells containing the zebrafish larvae and incubating them in a 100% dark photoperiod incubator at 28.5° C. for one hour. […]
The optimized zebrafish sepsis model was evaluated against compounds previously shown to have efficacy in previous zebrafish sepsis models: fasudil, hydrocortisone, dexamethasone, and fisetin. […] Endpoints evaluated with model compounds included mortality, tail edema, and ROS at 6- and 24-hours post exposure to varying dose ranges of LPS.
LC50s for the LPS tests were determined using the Trimmed Spearmen-Karber method (Hamilton et al., 1977). […]

[3] = system: larval zebrafish exposed to Pseudomonas aeruginosa 60 μg/mL lipopolysaccharide (LPS); experiment: Zebrafish endotoxicity/sepsis model drug screening, statements without larval stage; conditions: for rescue at 6-hour exposure time point: 6-hour exposure time point
Source text: To identify potential sepsis drug candidates, an optimized larval zebrafish model of endotoxicity/sepsis was used to screen commercial libraries of U.S. Food and Drug Administration (FDA)-approved drugs and other active pharmaceutical ingredients (API) known to affect pathways implicated in the initiation and progression of sepsis in humans (i.e., inflammation, mitochondrial dysfunction, coagulation, and apoptosis). In this model, endotoxicity was induced in 3- and 5-day post fertilization larval zebrafish (characterized by mortality and tail fin edema (vascular leakage)) by immersion exposure to Pseudomonas aeruginosa 60 μg/mL lipopolysaccharide (LPS) for 24 hours, then screened for the rescue potential of 644 selected drugs simultaneously with LPS at 10 μM. After LPS exposure, a neurobehavioral assay (light-dark test) was performed to further evaluate rescue from endotoxicity and to determine possible off-target drug side effects.

Compound | rescue in drug efficacy dose range response [1] [%] | efficacy (mortality) at 6 hours ([2]; 6 hours post LPS exposure) | mortality at 24 hours post exposure ([2]; 24 hours post LPS exposure) | rescue at 6-hour exposure time point [3] | rescue by 24 hours post exposure [3]
CCCCCNC(=N)N/N=C/c1c[nH]c2ccc(OC)cc12 [Compound 400, Tegaserod (maleate)] | > 60 | – | – | – | –
C[C@@H]1C[C@H]2[C@@H]3CCC4=CC(=O)C=C[C@]4(C)[C@@]3(F)[C@@H](O)C[C@]2(C)[C@@]1(O)C(=O)CO [dexamethasone] | – | reduction in mortality across concentrations | greater mortality with dexamethasone than with no treatment | showed rescue early | failed to show any level of rescue
C[C@H]1C[C@@H]2[C@H]([C@@H](O)C[C@@]3(C)[C@H]2CC[C@]3(O)C(=O)CO)[C@@]2(C)C=CC(=O)C=C12 [methylprednisolone] | – | – | – | showed rescue early | failed to show any level of rescue
